Results deposited as PubChem BioAssay AID1224830 (NIAID, 2016).

Assay: 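Host factors that control LPS-induced TNF expression in human macrophages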 (primary screen)
Cells: human THP-1 monocytic leukaemia cells, TNF dual-luciferase reporter clone, PMA-differentiated to macrophage-like cells
Reagent: siRNA pool against human genes, 50 nM
Duration: LPS for 4 h, given about 3 days after siRNA transfection
Conditions: bacterial LPS (TLR4 ligand), 10 ng/ml
Measurement: 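Ratio of firefly to renilla light, scaled to the plate median and expressed as a robust z-score per replicate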
Direction: TNF reporter robust z-score: higher = stronger TNF reporter response to LPS
Active means: 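Each well counts as active if its z-score is over 2.8 or under -1.5; controls are left without a call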
This is one part, drawn at random, of about 18,000 deposited reagents. About 2,900 of them (16%) count as active. 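Calls are made per well; low scores hint the gene aids the LPS response, high scores that it dampens it.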 Entries without a mark were called inactive. Repeated entries: four replicate wells of each siRNA pool.

After knock-down of VMO1, the screen gave TNF reporter robust z-score 1.16.
For VMO1, the entry reads TNF reporter robust z-score 0.66.
VMO1 showed TNF reporter robust z-score 0.2.
Knock-down of VMO1 gave: TNF reporter robust z-score 1.31.
Knock-down of NRK resulted in: TNF reporter robust z-score -0.53.
With knock-down of NRK the results were TNF reporter robust z-score -1.04.
With knock-down of NRK, the record shows TNF reporter robust z-score 0.58.
Silencing of NRK gave: TNF reporter robust z-score -0.25.
Knock-down of SGCB gave: TNF reporter robust z-score 0.64.
Against SGCB the deposit lists TNF reporter robust z-score 1.83.
SGCB gave TNF reporter robust z-score 0.88.
SGCB showed TNF reporter robust z-score 0.73.
For PRIMA1 the deposit lists TNF reporter robust z-score -1.01.
Knock-down of PRIMA1 resulted in: TNF reporter robust z-score -0.75.
Against PRIMA1 the deposit lists TNF reporter robust z-score -0.01.
After knock-down of PRIMA1 the results were TNF reporter robust z-score 0.34.
TMEM51 scored TNF reporter robust z-score 0.03.
Silencing of TMEM51 resulted in: TNF reporter robust z-score -0.73.
After knock-down of TMEM51, the screen gave TNF reporter robust z-score -0.82.
With knock-down of TMEM51, the record shows TNF reporter robust z-score -0.91.
THOC6 showed TNF reporter robust z-score -0.36.
With knock-down of THOC6 the results were TNF reporter robust z-score -0.34.
For THOC6 the deposit lists TNF reporter robust z-score 0.21.
Knock-down of THOC6 came out at: TNF reporter robust z-score 0.42.
For GANAB, the entry reads TNF reporter robust z-score 1.83.
For GANAB, the values are TNF reporter robust z-score 1.49.
Against GANAB, the values are TNF reporter robust z-score -0.01.
Depletion of GANAB came out at: TNF reporter robust z-score 1.47.
After knock-down of OR5C1, the record shows TNF reporter robust z-score 1.71.
Against OR5C1, the entry reads TNF reporter robust z-score 0.98.
OR5C1 scored TNF reporter robust z-score -0.31.
After knock-down of OR5C1, the screen gave TNF reporter robust z-score 0.54.
